Measured values reported in the supplement of paper PMC10849652.
This is one part of the list.

Chains of the proteins cited; added tags and fusions are not shown. Lines headed by an entry give the natural chain unless they say otherwise; changes in a name come on top.
UniProt P14314: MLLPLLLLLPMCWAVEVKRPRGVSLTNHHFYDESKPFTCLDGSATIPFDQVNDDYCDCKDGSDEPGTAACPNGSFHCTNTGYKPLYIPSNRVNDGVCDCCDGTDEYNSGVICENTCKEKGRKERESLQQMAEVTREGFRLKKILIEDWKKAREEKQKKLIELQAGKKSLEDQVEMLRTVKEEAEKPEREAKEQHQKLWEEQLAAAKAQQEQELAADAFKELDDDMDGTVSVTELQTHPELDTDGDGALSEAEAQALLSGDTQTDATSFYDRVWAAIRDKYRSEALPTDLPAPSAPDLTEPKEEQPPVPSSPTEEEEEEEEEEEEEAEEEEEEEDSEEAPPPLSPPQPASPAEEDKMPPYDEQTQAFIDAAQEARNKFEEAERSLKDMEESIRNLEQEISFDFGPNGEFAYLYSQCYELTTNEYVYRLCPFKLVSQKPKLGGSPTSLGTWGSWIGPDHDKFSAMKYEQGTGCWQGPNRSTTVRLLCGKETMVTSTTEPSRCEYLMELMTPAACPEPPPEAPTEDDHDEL
UniProt P32119: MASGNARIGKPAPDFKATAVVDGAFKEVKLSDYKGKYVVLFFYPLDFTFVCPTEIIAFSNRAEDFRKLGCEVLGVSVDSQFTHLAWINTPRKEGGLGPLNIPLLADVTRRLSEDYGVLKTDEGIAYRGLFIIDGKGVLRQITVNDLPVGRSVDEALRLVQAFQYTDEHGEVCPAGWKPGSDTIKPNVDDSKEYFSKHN
UniProt Q9UNN8: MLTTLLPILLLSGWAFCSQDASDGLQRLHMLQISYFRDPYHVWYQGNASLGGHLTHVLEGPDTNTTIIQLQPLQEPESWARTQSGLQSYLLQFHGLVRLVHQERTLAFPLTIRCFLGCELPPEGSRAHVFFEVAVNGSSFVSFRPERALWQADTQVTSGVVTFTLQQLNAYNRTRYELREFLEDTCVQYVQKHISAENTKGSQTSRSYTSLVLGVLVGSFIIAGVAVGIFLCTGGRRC
UniProt Q9Y478: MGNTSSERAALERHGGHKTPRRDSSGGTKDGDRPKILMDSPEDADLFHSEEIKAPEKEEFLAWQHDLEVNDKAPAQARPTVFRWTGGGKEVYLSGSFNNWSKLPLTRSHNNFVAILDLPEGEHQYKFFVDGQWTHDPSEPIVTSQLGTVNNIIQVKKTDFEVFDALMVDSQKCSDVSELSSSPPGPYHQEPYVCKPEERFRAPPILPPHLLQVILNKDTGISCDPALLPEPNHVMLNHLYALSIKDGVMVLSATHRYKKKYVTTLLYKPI
UniProt P31323, whole entry, looked up: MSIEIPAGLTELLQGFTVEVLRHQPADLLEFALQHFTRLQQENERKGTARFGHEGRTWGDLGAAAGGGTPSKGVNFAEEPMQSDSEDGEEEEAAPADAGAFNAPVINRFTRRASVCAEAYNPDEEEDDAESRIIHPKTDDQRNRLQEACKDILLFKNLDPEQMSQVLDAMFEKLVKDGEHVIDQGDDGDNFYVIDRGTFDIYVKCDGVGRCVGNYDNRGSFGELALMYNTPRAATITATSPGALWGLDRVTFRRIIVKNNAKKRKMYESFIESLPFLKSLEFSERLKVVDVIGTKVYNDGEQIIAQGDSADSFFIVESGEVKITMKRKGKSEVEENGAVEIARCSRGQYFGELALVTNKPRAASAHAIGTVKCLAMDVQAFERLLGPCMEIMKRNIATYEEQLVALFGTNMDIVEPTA
UniProt Q9Y3C6: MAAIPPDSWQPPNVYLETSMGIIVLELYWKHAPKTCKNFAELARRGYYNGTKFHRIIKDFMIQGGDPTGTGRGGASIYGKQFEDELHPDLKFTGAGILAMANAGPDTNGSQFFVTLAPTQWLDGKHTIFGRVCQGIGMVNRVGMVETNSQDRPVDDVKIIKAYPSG
UniProt Q6PFW1: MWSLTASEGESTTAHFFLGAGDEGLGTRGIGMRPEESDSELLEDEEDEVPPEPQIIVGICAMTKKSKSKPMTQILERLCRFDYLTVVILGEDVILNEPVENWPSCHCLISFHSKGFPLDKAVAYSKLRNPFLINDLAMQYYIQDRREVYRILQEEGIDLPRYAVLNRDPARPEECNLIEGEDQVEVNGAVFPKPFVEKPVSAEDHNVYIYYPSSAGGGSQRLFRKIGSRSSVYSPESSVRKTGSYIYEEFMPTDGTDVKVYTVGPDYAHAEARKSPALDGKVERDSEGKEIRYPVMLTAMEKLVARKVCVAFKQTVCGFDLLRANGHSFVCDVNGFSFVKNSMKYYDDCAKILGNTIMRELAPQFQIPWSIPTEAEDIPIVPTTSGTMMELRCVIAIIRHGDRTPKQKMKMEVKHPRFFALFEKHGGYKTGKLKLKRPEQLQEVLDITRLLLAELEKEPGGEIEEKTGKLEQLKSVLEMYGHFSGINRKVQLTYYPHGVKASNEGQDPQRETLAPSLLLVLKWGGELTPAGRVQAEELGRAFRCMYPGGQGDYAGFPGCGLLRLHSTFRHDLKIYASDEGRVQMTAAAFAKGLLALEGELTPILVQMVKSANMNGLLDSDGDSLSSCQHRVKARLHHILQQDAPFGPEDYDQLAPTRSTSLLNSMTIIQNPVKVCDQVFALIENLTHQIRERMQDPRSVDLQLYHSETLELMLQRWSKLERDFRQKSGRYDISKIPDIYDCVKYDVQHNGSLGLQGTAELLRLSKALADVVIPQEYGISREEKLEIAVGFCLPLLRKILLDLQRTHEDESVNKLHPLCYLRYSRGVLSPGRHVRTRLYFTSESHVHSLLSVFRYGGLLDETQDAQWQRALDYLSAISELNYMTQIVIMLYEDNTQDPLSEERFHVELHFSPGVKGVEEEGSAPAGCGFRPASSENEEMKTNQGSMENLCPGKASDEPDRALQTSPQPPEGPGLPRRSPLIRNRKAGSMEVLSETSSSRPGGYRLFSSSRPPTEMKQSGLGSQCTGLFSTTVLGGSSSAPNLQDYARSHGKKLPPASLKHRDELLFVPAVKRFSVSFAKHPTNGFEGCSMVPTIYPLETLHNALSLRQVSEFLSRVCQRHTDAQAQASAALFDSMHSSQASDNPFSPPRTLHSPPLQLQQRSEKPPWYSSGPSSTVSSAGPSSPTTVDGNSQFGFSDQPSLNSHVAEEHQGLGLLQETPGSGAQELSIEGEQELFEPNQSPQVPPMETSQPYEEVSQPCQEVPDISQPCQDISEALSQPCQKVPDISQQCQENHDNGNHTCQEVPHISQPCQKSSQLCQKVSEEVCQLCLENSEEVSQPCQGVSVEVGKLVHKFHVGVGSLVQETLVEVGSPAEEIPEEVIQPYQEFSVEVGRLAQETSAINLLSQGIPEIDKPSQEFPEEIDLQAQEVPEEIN
UniProt Q6ZMI0: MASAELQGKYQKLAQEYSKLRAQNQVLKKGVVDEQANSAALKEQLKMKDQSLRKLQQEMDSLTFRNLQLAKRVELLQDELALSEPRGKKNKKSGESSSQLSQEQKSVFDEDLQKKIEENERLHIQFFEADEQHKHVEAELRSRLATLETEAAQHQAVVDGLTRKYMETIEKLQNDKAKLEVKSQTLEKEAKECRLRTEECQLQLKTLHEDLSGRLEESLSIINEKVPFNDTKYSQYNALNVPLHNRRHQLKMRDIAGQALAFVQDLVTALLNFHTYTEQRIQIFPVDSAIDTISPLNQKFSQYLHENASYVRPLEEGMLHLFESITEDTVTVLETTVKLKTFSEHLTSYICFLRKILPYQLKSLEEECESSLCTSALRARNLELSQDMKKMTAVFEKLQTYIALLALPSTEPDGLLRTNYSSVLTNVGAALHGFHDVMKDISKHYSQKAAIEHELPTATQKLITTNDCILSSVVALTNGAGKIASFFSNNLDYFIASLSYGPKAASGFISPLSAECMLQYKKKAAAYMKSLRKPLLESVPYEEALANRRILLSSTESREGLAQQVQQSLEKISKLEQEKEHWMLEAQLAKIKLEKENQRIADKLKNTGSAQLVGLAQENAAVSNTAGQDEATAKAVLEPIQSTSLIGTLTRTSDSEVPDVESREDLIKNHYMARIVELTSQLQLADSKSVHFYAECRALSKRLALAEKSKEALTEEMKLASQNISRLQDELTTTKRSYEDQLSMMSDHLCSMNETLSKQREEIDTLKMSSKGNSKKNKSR
UniProt Q9ULR3: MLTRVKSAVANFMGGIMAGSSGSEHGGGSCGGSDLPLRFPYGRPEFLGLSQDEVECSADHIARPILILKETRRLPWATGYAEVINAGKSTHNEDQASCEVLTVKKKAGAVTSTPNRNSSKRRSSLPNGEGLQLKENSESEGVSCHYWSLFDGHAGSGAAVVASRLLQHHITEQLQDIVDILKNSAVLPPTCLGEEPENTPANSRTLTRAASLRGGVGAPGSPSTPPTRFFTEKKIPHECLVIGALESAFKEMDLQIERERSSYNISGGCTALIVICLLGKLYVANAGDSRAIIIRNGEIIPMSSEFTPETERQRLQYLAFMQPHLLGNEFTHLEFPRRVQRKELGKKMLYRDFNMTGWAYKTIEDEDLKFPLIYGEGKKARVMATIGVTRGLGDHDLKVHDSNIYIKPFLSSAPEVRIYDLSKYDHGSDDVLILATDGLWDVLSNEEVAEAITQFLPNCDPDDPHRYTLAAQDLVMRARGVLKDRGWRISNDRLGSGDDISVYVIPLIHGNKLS
UniProt O75400: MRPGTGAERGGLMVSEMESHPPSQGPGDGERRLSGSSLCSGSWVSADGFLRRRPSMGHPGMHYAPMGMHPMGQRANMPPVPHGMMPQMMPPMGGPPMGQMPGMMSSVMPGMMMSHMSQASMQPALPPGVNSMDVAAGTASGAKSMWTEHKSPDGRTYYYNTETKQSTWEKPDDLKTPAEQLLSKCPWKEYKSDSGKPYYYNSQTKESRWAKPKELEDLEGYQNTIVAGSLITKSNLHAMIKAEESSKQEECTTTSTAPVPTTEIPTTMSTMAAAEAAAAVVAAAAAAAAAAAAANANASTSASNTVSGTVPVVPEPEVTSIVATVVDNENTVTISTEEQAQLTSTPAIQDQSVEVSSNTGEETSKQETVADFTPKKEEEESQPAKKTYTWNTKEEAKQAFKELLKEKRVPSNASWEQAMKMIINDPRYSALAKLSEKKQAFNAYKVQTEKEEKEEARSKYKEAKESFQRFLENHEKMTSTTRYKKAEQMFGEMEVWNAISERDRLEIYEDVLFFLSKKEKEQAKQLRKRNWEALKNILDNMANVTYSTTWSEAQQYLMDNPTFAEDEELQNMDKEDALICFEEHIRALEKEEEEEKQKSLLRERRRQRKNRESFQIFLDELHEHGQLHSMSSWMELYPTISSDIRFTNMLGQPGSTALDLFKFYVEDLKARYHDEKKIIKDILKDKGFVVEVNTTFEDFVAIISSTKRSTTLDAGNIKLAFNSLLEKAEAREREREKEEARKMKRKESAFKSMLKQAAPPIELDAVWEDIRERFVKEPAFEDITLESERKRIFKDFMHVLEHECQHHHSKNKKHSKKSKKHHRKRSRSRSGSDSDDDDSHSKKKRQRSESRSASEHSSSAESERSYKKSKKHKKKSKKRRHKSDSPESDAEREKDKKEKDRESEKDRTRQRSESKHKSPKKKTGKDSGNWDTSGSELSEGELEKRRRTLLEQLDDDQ
UniProt Q9NR22, whole entry, looked up: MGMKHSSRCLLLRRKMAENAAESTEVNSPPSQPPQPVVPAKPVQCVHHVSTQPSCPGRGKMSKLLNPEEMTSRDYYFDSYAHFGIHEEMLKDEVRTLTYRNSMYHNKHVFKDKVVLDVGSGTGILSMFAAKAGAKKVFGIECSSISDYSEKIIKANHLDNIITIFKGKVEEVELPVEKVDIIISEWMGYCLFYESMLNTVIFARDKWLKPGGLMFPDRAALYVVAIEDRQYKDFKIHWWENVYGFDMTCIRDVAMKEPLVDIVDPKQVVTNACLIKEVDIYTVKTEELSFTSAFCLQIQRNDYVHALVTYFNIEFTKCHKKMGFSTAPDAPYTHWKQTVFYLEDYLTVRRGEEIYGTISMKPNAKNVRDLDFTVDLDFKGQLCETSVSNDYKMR

Columns and labels:
Test in all cases: log2 fold change, soluble protein after heating vs DMSO (PISA); higher = thermal stabilisation; K562 lysate, 10 uM; active = over 0.2 and 3.5 SD of the protein, either way, in both replicates (recomputed)
vemurafenib = compound: CCCS(=O)(=O)Nc1ccc(F)c(C(=O)c2c[nH]c3ncc(-c4ccc(Cl)cc4)cc23)c1F [vemurafenib]
Method in brief: (§1)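 To prepare the extract, K562 pellets were dounce-homogenised in PBS pH 7.4 with 1 mM MgCl2, giving crude material at 1 mg/mL protein. This was treated with 10 μM compound for 30 min, then heated in aliquots for 3 min over 48°C-58°C before pooling and addition of NP-40 to 0.5% at 4°C. Centrifugation at 21,000xg for 90 min left soluble protein in the supernatant, which TMTpro 16plex LC-MS/MS quantified with equalised channel sums. Results are log-two fold changes in thermal stability compared with solvent controls, from duplicates.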

[1] = compound: CCCS(=O)(=O)Nc1ccc(F)c(C(=O)c2c[nH]c3ncc(Cl)cc23)c1F
Method in brief: as §1

barasertib = compound: CCN(CCCOc1ccc2c(Nc3cc(CC(=O)Nc4cccc(F)c4)[nH]n3)ncnc2c1)CCOP(=O)(O)O [barasertib]
Method in brief: as §1

[2] = compound: CC[C@@H]1C(=O)N(C)c2cnc(Nc3ccc(C(=O)NC4CCN(C)CC4)cc3OC)nc2N1C1CCCC1
Method in brief: as §1

volasertib = compound: CC[C@@H]1C(=O)N(C)c2cnc(Nc3ccc(C(=O)N[C@H]4CC[C@H](N5CCN(CC6CC6)CC5)CC4)cc3OC)nc2N1C(C)C [volasertib]
Method in brief: as §1

[3] = compound: CCn1c(C(=O)N(C2CC2)C2CC2)cc2c3c(ncn3C)c(Nc3cc(C)n(C)n3)nc21
Method in brief: as §1

[4] = compound: CCn1cc(-c2ccnc3[nH]c(-c4cccc(CN(C)C)c4)cc23)c(-c2ccc(NC(=O)N(C)C)cc2)n1
Method in brief: as §1

[5] = compound: CN1CCC(CNc2ccc3ncc(-c4cccc(OC(F)(F)F)c4)n3n2)CC1
Method in brief: as §1

saracatinib = compound: CN1CCN(CCOc2cc(OC3CCOCC3)c3c(Nc4c(Cl)ccc5c4OCO5)ncnc3c2)CC1 [saracatinib]
Method in brief: as §1

sotrastaurin = compound: CN1CCN(c2nc(C3=C(c4c[nH]c5ccccc45)C(=O)NC3=O)c3ccccc3n2)CC1 [sotrastaurin]
Method in brief: as §1

Target	log2 fold change (vemurafenib)	log2 fold change [1]	log2 fold change (barasertib)	log2 fold change [2]	log2 fold change (volasertib)	log2 fold change [3]	log2 fold change [4]	log2 fold change [5]	log2 fold change (saracatinib)	log2 fold change (sotrastaurin)
PRKCSH isoform 2 (UniProt P14314)	inactive: 0.007	inactive: -0.053	inactive: -0.159	inactive: 0.03	inactive: -0.052	inactive: -0.101	active: -1.03	inactive: 0.326	inactive: 0.022	inactive: 0.199
PRMT7 (UniProt Q9NVM4)	inactive: 0.058	inactive: -0.006	inactive: 0.018	inactive: -0.02	inactive: 0.001	inactive: -0.013	inactive: 0.013	inactive: 0.003	inactive: 0.045	inactive: 0.009
PPM1G (UniProt O15355)	inactive: -0.038	inactive: -0.013	inactive: -0.013	inactive: -0.006	inactive: -0.007	inactive: 0.043	inactive: 0.059	inactive: -0.027	inactive: 0.007	inactive: 0.007
PRDX2 (UniProt P32119)	inactive: -0.029	inactive: -0.021	inactive: -0.011	inactive: 0.026	inactive: 0.045	inactive: 0.016	inactive: -0.074	inactive: 0.109	inactive: -0.006	inactive: 0.018
PRKCA (UniProt P17252)	inactive: 0.019	inactive: -0.016	inactive: 0.051	inactive: -0.186	inactive: -0.054	inactive: 0.004	inactive: 0.101	inactive: -0.207	inactive: -0.046	active: 0.924
PROCR (UniProt Q9UNN8)	inactive: -0.052	inactive: 0.049	inactive: 0.001	inactive: 0.099	inactive: 0.057	inactive: -0.079	inactive: -0.036	inactive: 0.086	inactive: -0.07	inactive: 0.146
PPIL4 (UniProt Q8WUA2)	inactive: -0.004	inactive: 0.013	inactive: -0.016	inactive: 0.061	inactive: -0.019	inactive: -0.014	inactive: -0.012	inactive: 0.004	inactive: 0.012	inactive: 0.037
PREP (UniProt P48147)	inactive: 0.028	inactive: 0.011	inactive: -0.003	inactive: -0.025	inactive: -0.025	inactive: 0.023	inactive: 0.008	inactive: -0.013	inactive: 0.005	inactive: 0.001
PRKCSH (UniProt K7ELL7)	inactive: 0.089	inactive: 0.02	inactive: -0.037	inactive: 0.186	inactive: -0.04	inactive: 0.013	inactive: 0.217	inactive: -0.008	inactive: -0.011	inactive: -0.015
PPP2R5B (UniProt Q15173)	inactive: -0.036	inactive: 0	inactive: -0.016	inactive: -0.057	inactive: 0.031	inactive: 0	inactive: -0.01	inactive: -0.079	inactive: 0.001	inactive: -0.074
PRKAB1 (UniProt Q9Y478)	inactive: -0.004	inactive: 0.04	inactive: -0.04	inactive: 0.018	inactive: -0.07	inactive: -0.008	inactive: 0.056	inactive: 0	inactive: 0.085	inactive: 0.036
PRKAR2B (UniProt P31323)	inactive: 0.01	inactive: 0	inactive: 0.053	inactive: -0.028	inactive: -0.043	inactive: -0.032	inactive: 0.051	active: -0.26	inactive: 0.007	inactive: -0.17
PPIL1 (UniProt Q9Y3C6)	inactive: -0.003	inactive: -0.019	inactive: 0.026	inactive: -0.004	inactive: -0.033	inactive: -0.01	inactive: -0.036	inactive: 0.009	inactive: 0.015	inactive: 0.026
PPIP5K1 (UniProt Q6PFW1)	inactive: -0.02	inactive: 0.023	inactive: 0.031	inactive: -0.014	inactive: -0.043	inactive: -0.002	inactive: -0.005	inactive: -0.006	inactive: -0.016	inactive: 0.023
PPP1R21 (UniProt Q6ZMI0)	inactive: 0.178	inactive: 0.025	inactive: 0.04	inactive: 0.171	inactive: -0.052	inactive: -0.072	inactive: -0.009	inactive: -0.055	inactive: -0.014	inactive: -0.008
PRPF31 (UniProt Q8WWY3)	inactive: 0	inactive: 0.014	inactive: 0.007	inactive: -0.006	inactive: -0.017	inactive: 0.042	inactive: 0.038	inactive: -0.032	inactive: 0.009	inactive: 0.015
PPP1R9A isoform 3 (UniProt Q9ULJ8)	inactive: -0.122	inactive: 0.024	inactive: 0.132	inactive: -0.063	inactive: 0.034	inactive: 0.043	inactive: -0.017	inactive: -0.01	inactive: -0.028	inactive: -0.021
PPM1H (UniProt Q9ULR3)	inactive: 0.066	inactive: -0.001	inactive: 0	inactive: 0.103	inactive: 0.025	inactive: 0	inactive: -0.079	inactive: 0.041	inactive: -0.062	inactive: 0.022
PREPL (UniProt Q4J6C6)	inactive: -0.032	inactive: 0.023	inactive: -0.01	inactive: -0.019	inactive: -0.009	inactive: 0.007	inactive: 0.001	inactive: -0.013	inactive: -0.006	inactive: 0.032
PRMT3 (UniProt O60678)	inactive: 0.004	inactive: 0.02	inactive: 0.013	inactive: 0.005	inactive: -0.013	inactive: -0.015	inactive: 0.051	inactive: -0.143	inactive: -0.01	inactive: -0.013
PPP2R5C isoform 4 (UniProt Q13362)	inactive: 0.029	inactive: 0.02	inactive: -0.001	inactive: 0.018	inactive: -0.002	inactive: 0.022	inactive: -0.02	inactive: -0.038	inactive: 0.017	inactive: -0.036
PPP1R7 (UniProt Q15435)	inactive: -0.013	inactive: -0.009	inactive: 0.018	inactive: -0.034	inactive: 0.014	inactive: 0.028	inactive: -0.019	inactive: 0.003	inactive: -0.003	inactive: 0.009
PRPF40A (UniProt O75400)	inactive: 0.01	inactive: -0.002	inactive: 0.001	inactive: 0.092	inactive: 0.008	inactive: 0.02	inactive: 0.041	inactive: -0.036	inactive: -0.003	inactive: -0.069
PPP4R1 (UniProt Q8TF05)	inactive: -0.019	inactive: 0.021	inactive: -0.011	inactive: -0.017	inactive: -0.05	inactive: 0.008	inactive: -0.013	inactive: 0.005	inactive: 0.009	inactive: 0.016
PRCC (UniProt Q92733)	inactive: -0.007	inactive: -0.001	inactive: -0.053	inactive: 0.027	inactive: 0.039	inactive: 0.014	inactive: -0.025	inactive: 0.052	inactive: 0.024	inactive: -0.022
PPP1CB (UniProt P62140)	inactive: 0.002	inactive: 0.034	inactive: -0.008	inactive: 0.016	inactive: -0.001	inactive: -0.019	inactive: 0.076	inactive: -0.009	inactive: -0.013	inactive: 0.001
PRMT8 (UniProt Q9NR22)	inactive: 0.059	inactive: 0.021	inactive: 0.007	inactive: -0.009	inactive: -0.009	inactive: -0.005	active: -0.285	inactive: 0.179	inactive: -0.018	inactive: 0.007

Full records from above. Values in the order: log2 fold change (vemurafenib)	log2 fold change [1]	log2 fold change (barasertib)	log2 fold change [2]	log2 fold change (volasertib)	log2 fold change [3]	log2 fold change [4]	log2 fold change [5]	log2 fold change (saracatinib)	log2 fold change (sotrastaurin)
PRMT8 (UniProt Q9NR22) in the list: inactive: 0.059	inactive: 0.021	inactive: 0.007	inactive: -0.009	inactive: -0.009	inactive: -0.005	active: -0.285	inactive: 0.179	inactive: -0.018	inactive: 0.007
PPP1R21 (UniProt Q6ZMI0) in the list: inactive: 0.178	inactive: 0.025	inactive: 0.04	inactive: 0.171	inactive: -0.052	inactive: -0.072	inactive: -0.009	inactive: -0.055	inactive: -0.014	inactive: -0.008
